Protein sequences, listed by entry. Tags and fused reporters are not part of them. Lines headed by an entry give the natural chain unless they say otherwise; changes in a name come on top.
UniProt P41597: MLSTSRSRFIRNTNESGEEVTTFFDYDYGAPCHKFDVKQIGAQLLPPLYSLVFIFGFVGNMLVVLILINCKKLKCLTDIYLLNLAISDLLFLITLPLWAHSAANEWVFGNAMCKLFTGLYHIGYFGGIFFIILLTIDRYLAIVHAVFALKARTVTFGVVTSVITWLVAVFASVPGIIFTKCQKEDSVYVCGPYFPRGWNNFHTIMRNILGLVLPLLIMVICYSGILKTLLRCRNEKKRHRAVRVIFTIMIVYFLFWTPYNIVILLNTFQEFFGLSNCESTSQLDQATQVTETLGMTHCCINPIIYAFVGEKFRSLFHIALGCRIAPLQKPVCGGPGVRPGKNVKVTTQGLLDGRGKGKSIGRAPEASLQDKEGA

According to patent US20060008801A1 (EFFECTOR CELL INSTITUTE, published 2006):

Biological target: human CCR2 protein expressed in cells (transfected HEK293 cells; THP-1 cells) (human) (UniProt P41597)
Experiment: fluorescence microscopy of HEK cells (colocalization)

binding: binds
B1: green fluorescent protein-fused FROUNT protein 1 (pEGFP-FROUNT), expressed in HEK293 cells (protein, not shown: large carriers)
chain: MYFDWGPGEMLVCETSFNKKEKSEMVPSCPFIYIIRKDVDVYSQILRKLFNESHGIFLGLQRIDEELTGKSRKSQLVRVSKNYRSVIRACMEEMHQVAIAAKDPANGRQFSSQVSILSAMELIWNLCEILFIEVAPAGPLLLHLLDWVRLHVCEVDSLSADVLGSENPSKHDSFWNLVTILVLQGRLDEARQMLSKEADASPASAGICRIMGDLMRTMPILSPGNTQTLTELELKWQHWHEECERYLQDSTFATSPHLESLLKIMLGDEAALLEQKELLSNWYHFLVTRLLYSNPTVKPIDLHYYAQSSLDLFLGGESSPEPLDNILLAAFEFDIHQVIKECSIALSNWWFVAHLTDLLDHCKLLQSHNLYFGSNMREFLLLEYASGLFAHPSLWQLGVDYFDYCPELGRVSLELHIERIPLNTEQKALKVLRICEQRQMTEQVRSICKILAMKAVRNNRLGSALSWSIRAKDAAFATLVSDRFLRDYCERGCFSDLDLIDNLGPAMMLSDRLTFLGKYREFHRMYGEKRFADAASLLLSLMTSRIAPRSFWMTLLTDALPLLEQKQVIFSAEQTYELMRCLEDLTSRRPVHGESDTEQLQDDDIETTKVEMLRLSLARNLARAIIREGSLEGS

No constants are given. Whether binding was seen depends on the method and setting. Binding can be weak; no strength is given. Where a sequence is shown, tags or fusion partners need not be part of it.
